Library screen at single concentrations

Sequences of proteins named here, by UniProt entry; tags and fusion partners are left off.
UniProt P9WNZ1, whole entry: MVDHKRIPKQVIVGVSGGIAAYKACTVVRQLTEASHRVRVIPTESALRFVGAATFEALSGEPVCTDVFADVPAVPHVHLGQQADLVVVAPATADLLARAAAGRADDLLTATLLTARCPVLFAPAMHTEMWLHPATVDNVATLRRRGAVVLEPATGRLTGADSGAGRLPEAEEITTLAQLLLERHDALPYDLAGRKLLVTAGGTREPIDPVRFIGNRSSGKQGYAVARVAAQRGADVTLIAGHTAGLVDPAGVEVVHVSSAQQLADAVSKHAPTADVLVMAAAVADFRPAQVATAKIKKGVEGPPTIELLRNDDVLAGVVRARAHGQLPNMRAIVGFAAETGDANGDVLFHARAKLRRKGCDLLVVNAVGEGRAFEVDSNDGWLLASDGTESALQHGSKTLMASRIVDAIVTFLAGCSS

Data taken from ChEMBL document CHEMBL3988442, “University of Dundee, Small-Polar-MMV Screening Library” (2021).

Results are given as percent effect. The controls that fix the scale are not given in the record; negative values are as filed. The compounds are a random part of those screened. Two or more numbers in one place are separate tests of the same structure; such repeats can differ widely.

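Coenzyme A biosynthesis protein CoaBC, Mycobacterium tuberculosis (UniProt P9WNZ1). Enzyme assay of CoaBC with a phosphate dye (Biomol Green) read at 650 nm. Concentration: 30 µM. Direction is inferred from only a few compounds that gave an IC50; most scored high, so higher reads as stronger inhibition. Most strong results did not repeat in a second test. Of about 67,000 compounds tested this way, about 40 (0.06%) reached 50% or more in at least one test.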

SMILES	Percent Effect
CCN(CC)CCNc1c(-c2ccccc2)c(=O)c1=O	5.138%
CCN1C[C@H]2[C@@H](C1)N(C(=O)Cc1ccsc1)CC[C@H]2OC	2.188%
CC(C)Cc1nc(NC(=O)c2cccnc2)n[nH]1	0.9685%
Cc1ccc(CNCc2ccc(N3CCC(CO)CC3)nc2)c(C)c1	4.087%
CCN1CC2(CCN(CC3CCCO3)CC2)OC1=O (configuration not stated)	5.767%
CNc1cncc(C2CCCN2C(=O)c2ccc3oc(C)cc3c2)n1 (configuration not stated)	0.6545%
Cc1cccc(C(C(=O)NCCCc2ccccn2)N(C)C)c1 (configuration not stated)	-0.7453%
CN(C)C(=O)N1C[C@@H]2CC[C@H](C1)N(S(=O)(=O)c1cccnc1)C2	2.427%
Cc1cnc(Nc2cccc(C3CCCN3Cc3cn(C)nc3C)n2)s1 (configuration not stated)	8.763% & 39.95%
CC1=N[C@@]2(CC[C@@H]3CN(S(=O)(=O)N(C)C)C[C@@H]32)C(=O)N1CC(C)C	6.941%
O[C@@H]1C[C@@](CNCc2ccc(F)cc2)(COc2cccnc2)C[C@@H]1O	-2.428%
CN1CC2(CCCN(Cc3nnc(-c4ccco4)o3)CC2)OC1=O (configuration not stated)	1.603%
OCC1CCCN1c1cc(NCCc2nccs2)ncn1 (configuration not stated)	2.152%
CO[C@H]1C[C@@H]2CN(C(=O)c3n[nH]c4c3CCCC4)C[C@@H]2C1	-6.311%
CC(NC(=O)N1CCCN(Cc2cccs2)CC1)c1cccnc1 (configuration not stated)	2.926%
CCc1ccc(NC(=O)C(C)Nc2cccc3c2OCCO3)cc1 (configuration not stated)	2.57%
CN(C)C(=O)N1CCC2(CC1)CN(CC1CC1)CC21CCNC1=O (configuration not stated)	4.835%
CCOC(C)c1noc(CN2CCN(Cc3cccnc3)CC2)n1 (configuration not stated)	-2.899%
NC(=O)C1(CNCc2csc(-c3cccs3)n2)CCOCC1	0.6036%
Cc1ccc(CC(=O)Nc2cc(C(C)C)n[nH]2)cn1	-5.806%
COc1ccncc1NC(=O)C1(c2ccc(F)cc2)CCC1	-2.644%
CCc1nsc(N2CCCN(C(=O)COc3ccccc3)CC2)n1	-4.555%
c1ccc(CCCn2ccnc2-c2cn(C3CCNCC3)nn2)nc1	-13.27%
OCC1(Cc2cccc(Cl)c2)CCCN(c2ncccn2)C1 (configuration not stated)	-3.299%
COC1COC2(CCN(Cc3ccccc3C)CC2)C1 (configuration not stated)	1.003%
O=C(CCN1CCc2ccccc21)N1C[C@@H](O)[C@H](N2CCOCC2)C1	5.562%
CN(C)C(=O)CN1CCC2(C1)CN(CC1CCOC1)C2 (configuration not stated)	2.326%
CC(C)NC(=O)CN(C)C(=O)c1c(Br)c2ccccc2n1C	-1.29%
COc1ccc2c(c1)OC1(CCN(Cc3cccc(C)c3)CC1)CC2=O	5.583%
Cc1ccc(F)c(NCC(C)(C)S(C)(=O)=O)c1	1.222%
CN1CC(Nc2nc3c(cnn3-c3ccccc3)c(=O)[nH]2)CCC1=O (configuration not stated)	1.099%
Cc1ccc2nc(CN3CCCCC3CCN3CCOCC3)cn2c1 (configuration not stated)	8.657%
Cc1ccc(CN(c2cc(C)nc3nc(C(F)(F)F)nn23)C2CC2)cc1	-35.82%
CCn1cnnc1CNC(=O)N(C)Cc1ccc2c(c1)OCO2	0.1242%
O=C(NCc1ccccc1OCC1CC1)C1CCOC1 (configuration not stated)	-0.123%
Oc1ccc([C@H]2Oc3cc(O)cc(O)c3C[C@@H]2O)cc1	12.87%
O=S(=O)(Cc1nc(C2CC2)no1)c1ccccc1F	1.106%
Cc1ccccc1OCC(=O)N1CC[C@]2(C[C@@H](OCC3CC3)CO2)C1	2.737%
CN(C)CCNc1cc(-c2ncccc2C(F)(F)F)c2cc[nH]c2n1	-36.23%
CNC(=O)[C@@H]1COC[C@H]2CN(C(=O)c3cccc(OC)c3)C[C@H]21	-2.748%
COc1ccccc1C(=O)C1CCCN(c2cc(C#N)ccn2)C1 (configuration not stated)	-0.6165%
NC(=O)CC1CCN(C(=O)NCc2ccc(-c3ccn[nH]3)cc2)CC1	5.236%
CN1CC(=O)N(c2cccc(F)c2)CC12CCN(Cc1nccs1)C2 (configuration not stated)	-1.895%
CN(C)C1CCN(C(=O)NCc2ccc(Cn3cncn3)cc2)CC1	0.2132%
Fc1ccc(OCCCNC2=NCCCN2)cc1	-5.825%
COc1ccc(C(C(=O)O)N2CCCN(C3CCCC3)CC2)cc1OC (configuration not stated)	-10.57%
c1csc(CN2CCc3ncnc(C4CCOC4)c3CC2)c1 (configuration not stated)	0.3226%
COc1ccc(OC)c(C(O)CN2CCN(c3cccc(C)c3)CC2)c1 (configuration not stated)	-1.324%
O=C(NCc1ccco1)[C@H]1C[C@@H]2CCN(c3ncccn3)C[C@H]2O1	12.89% & 43.03%
COc1ccc2c(c1)C1(CCN(Cc3ccncc3)CC1)N(C)CC2	-0.1267%
Cc1ccc(NC2CCN(C(=O)c3ccco3)CC2)nn1	-1.535%
CCc1nnc2n1CCN(C(=O)c1cnc3c(cnn3C(C)C)c1)C2	-0.7453%
COc1c(C)cnc(CN(C)C2CCCCC2)c1C	6.489%
Cc1ccc(C)c(CC(=O)NC2(C#N)CCOCC2)c1	16.93% & 28.55%
Cc1cscc1C(=O)Nc1cc(CSCCO)ccn1	4.39%
Cc1ccc(C(=O)NCCNCC2CNc3ccnn3C2)cc1F (configuration not stated)	-24.36%
O=C(N[C@@H]1CN(c2ncccn2)C[C@@H]2CCCO[C@@H]21)c1cccnc1	-0.6515%
CCCc1nc(CN2CCOC(Cn3cccn3)C2)no1 (configuration not stated)	-0.4545%
Cc1cnc(N2C[C@H]3CCN(CC4CC4)C[C@@H]3C2)nc1	-28.48%
CC(C)c1nc2n(n1)CC(NCc1ncc(-c3ccccc3)o1)CC2 (configuration not stated)	4.359%
CC(=O)N1CCC(c2ccnc(Nc3cc(C(F)(F)F)ccn3)n2)C1 (configuration not stated)	-4.895%
CSc1ccc(C)c(C(=O)N2CCCC(n3cncn3)C2)c1 (configuration not stated)	-4.021%
CCN(C)S(=O)(=O)N1CCCC(CO)(CC=C(C)C)C1 (configuration not stated)	-2.851%
CC(=O)c1ccc(C(=O)Nc2ccnc(N(C)C)n2)cc1	7.968%
COCCN1C[C@@H](C)[C@@]2(COCCN(C(=O)c3cccs3)C2)C1	-3.871%
CC(C)Cc1ncc2c(n1)CN(c1cc(NCCO)nc(N)n1)C2	2.893%
CC(NC(=O)NCCCn1cncn1)c1ccccc1F (configuration not stated)	-0.9091%
Cc1cc(CN2CCN(C(=O)C3CCC3)[C@@H]3CS(=O)(=O)C[C@@H]32)ccc1F	-0.4894%
CCN1C[C@@H]2CN(C(=O)c3cccn3C)C[C@@H]2C1=O	-1.97%
Cc1cc(C)c2c(OCC(=O)N(C)CC(=O)NC(C)C)nn(C)c2n1	1.607%
CNCC(=O)N1CCCC1c1nc(C(C)C)no1 (configuration not stated)	2.788%
N#Cc1cc2c(nc1O)CCCCC2	-1.84%
Cc1nc(CNC(=O)NCC(O)c2ccc(F)cc2)cs1 (configuration not stated)	2.551%
COc1cc(NC(=O)NC2CCOCC2)ccc1N1CCOC1=O	-2.893%

8 of the entries, repeated:

For Oc1ccc([C@H]2Oc3cc(O)cc(O)c3C[C@@H]2O)cc1 the result was 12.87%.
For CN1CC(Nc2nc3c(cnn3-c3ccccc3)c(=O)[nH]2)CCC1=O (configuration not stated) the result was 1.099%.
For CO[C@H]1C[C@@H]2CN(C(=O)c3n[nH]c4c3CCCC4)C[C@@H]2C1 the result was -6.311%.
For COc1ccc(C(C(=O)O)N2CCCN(C3CCCC3)CC2)cc1OC (configuration not stated) the result was -10.57%.
For Cc1cnc(N2C[C@H]3CCN(CC4CC4)C[C@@H]3C2)nc1 the result was -28.48%.
For CN(C)CCNc1cc(-c2ncccc2C(F)(F)F)c2cc[nH]c2n1 the result was -36.23%.
For Cc1ccc(NC2CCN(C(=O)c3ccco3)CC2)nn1 the result was -1.535%.
For CNC(=O)[C@@H]1COC[C@H]2CN(C(=O)c3cccc(OC)c3)C[C@H]21 the result was -2.748%.